According to patent US20170088602A1 (Bristol-Myers Squibb, published 2017):
These are yes or no findings as the source states them, for the method shown. Some results given as binding are weak or reduced against the parent protein; the word gives no strength. For some assays here: Tags and fused reporters may be left off the sequences shown.

Experiments:
[1] = target: T1, human myostatin (mature, recombinant; R&D Systems) (human) (UniProt O14793); test: KinExA detection reagent
T1 sequence: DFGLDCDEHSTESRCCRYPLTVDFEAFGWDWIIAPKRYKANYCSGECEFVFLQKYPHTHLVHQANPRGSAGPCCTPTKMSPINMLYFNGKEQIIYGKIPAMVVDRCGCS

[2] = target: T2, human BMP-11 (GDF-11; R&D Systems) (human, UniProt O95390 299-407); test: SPR Format A, 100 nM BMP11
T2 sequence (looked up): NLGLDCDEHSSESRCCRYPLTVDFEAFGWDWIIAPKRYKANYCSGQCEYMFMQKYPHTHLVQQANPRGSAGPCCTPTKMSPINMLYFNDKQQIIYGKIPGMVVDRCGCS

[3] = target: T1, human myostatin (mature, recombinant; R&D Systems) (human); test: SPR Format A, 100 nM myostatin
[4] = target: T2, human BMP-11 (GDF-11; R&D Systems); test: SPR Format B
[5] = target: T1, human myostatin (mature, recombinant; R&D Systems) (human); test: SPR Format B

B1: fluorescent-labeled ActRIIB-Ig (Fc fusion, UniProt Q13705 19-134, looked up, not shown: a dimerising Fc or GST)
chain: SGRGEAETRECIYYNANWELERTNQSGLERCEGEQDKRLHCYASWRNSSGTIELVKKGCWLDDFNCYDRQECVATEENPQVYFCCCEGNFCNERFTHLPEAGGPEVTYEPPPTAPT
modifications: fluorescent label
binding [1]: binds

B2: ActRIIB-Fc (produced in house) (Fc fusion, UniProt Q13705 19-134, looked up, not shown: a dimerising Fc or GST)
chain: B1 chain
binding [2]: binds
binding [3]: binds

B3: ActRIIB-monomer (produced in house) (receptor, UniProt Q13705 19-134, looked up)
chain: B1 chain
binding [4]: binds
binding [5]: binds
